# Test results reported in patent publication US20030134353A1, “Recombinant dimorphic fungal cell” (Bioteknologisk Institut, priority 2001, published 2003).
# At least one structure is not confirmed: it was looked up by name or label, or the drawing left a doubt.
# Columns and labels:
# [1] = test system: Mucor circinelloides strain R7B; assay: Screening of antibiotic sensitivity on YNB agar at pH 6.0; assay type: cell-based; conditions: 50 μg/ml antibiotic, YNB agar pH 6.0, 4 days at 28° C.
# Description: Spores of Mucor circinelloides strain R7B were plated on to YNB agar pH 6.0 supplemented with leucine (upper left plate in all panels) or the same medium supplemented with 50, 100 or 250 μg/ml of the antibiotic (geneticin, kanamycin, hygromycin B or neomycin) as indicated in each panel. After 4 days at 28° C., plates were examined and photographed.
# However, the conditions used for the above screening—especially the acid pH used (3.2 or 4.5)—may result in the inactivation of the antibiotic. Therefore, we performed an initial screening of antibiotic sensitivity using pH 6.0. Under these conditions, M. circinelloides is sensitive to all four antibiotic tested.
# M. circinelloides = conditions: van Heeswijck et al., 1988; acid pH (3.2 or 4.5); cited from earlier work
smiles,measurement,setting,value
CN[C@@H]1[C@@H](O)[C@@H](O[C@@H]2[C@@H](O)[C@H](O[C@H]3O[C@H]([C@@H](C)O)[C@@H](O)[C@H](O)[C@H]3N)[C@@H](N)C[C@H]2N)OC[C@]1(C)O [geneticin],Growth of M. circinelloides on antibiotic-supplemented plates,[1],no growth
same,Sensitivity of M. circinelloides to antibiotic as reported,M. circinelloides,insensitive
